Experimental data: PubChem BioAssay AID330 (DTP/NCI, 2004)
The list does not hold the whole screen: it is rich in T/C values a quarter to a half above the control, in often repeated tests (any T/C) and in doses without a T/C. Other doses and runs of a compound stand elsewhere. T/C: endpoint of the treated group in % of that of the vehicle group. Some doses have a count of surviving animals in place of a T/C: the source holds a T/C of zero for them, seemingly a mark for toxic or unscored doses. Some doses without a T/C left all or most animals alive at the check, yet need not have been tolerated: survival well below the control is almost never listed, so the zero probably covers shortened survival too. Counts of survivors are from the toxicity check (mostly the fifth day) where no day follows; animals may have died later. Schedules are NCI's codes, taken here to give the interval after Q, in days (D) or hours (H), and the number of doses after X. Some doses were run more than once; the results are listed from low to high. For survival time, the PubChem record calls one and a half times the control and up active, and a quarter to a half above the control has no call in these data; cut-offs in other NCI protocols can differ.

System: P388 leukemia ip, CD2F1 mice, survival T/C
Experiment: NCI In Vivo Anticancer Drug Screen. Data for tumor model P388 Leukemia (intraperitoneal) in CD2F1 (CDF1) mice
Details: T/C endpoint: median survival time, higher T/C = longer survival
[1] = dose: 240.0 mg/kg/injection, schedule: Q01DX005 (ip), vehicle: Klucel (hydroxypropylcellulose) (HPC)
[2] = dose: 100.0 mg/kg/injection, schedule: Q01DX005 (ip), vehicle: saline with Tween-80
[3] = dose: 200.0 mg/kg/injection, schedule: Q01DX005 (ip), vehicle: saline with Tween-80

COc1cc(C(NC(N)=O)c2cc3c(cc2OC(C)=O)OCO3)cc(OC)c1OC (configuration not stated)
survivor count [1]: 6 of 6

Cc1c(C)[n+](=O)c2ccc(/C=N/N3CCOC3=O)cc2n1[O-]
survivor count (dose: 50.0 mg/kg/injection, schedule: Q01DX009 (ip), vehicle: Klucel (hydroxypropylcellulose) (HPC)): 6 of 6
survivor count (dose: 200.0 mg/kg/injection, schedule: Q01DX009 (ip), vehicle: Klucel (hydroxypropylcellulose) (HPC)): 6 of 6

CC(C)(/C=N/O)N1CC=CCC1
survivor count (dose: 100.0 mg/kg/injection, schedule: Q04DX002 (ip), vehicle: saline with Tween-80): 0 of 6
survivor count (dose: 200.0 mg/kg/injection, schedule: Q04DX002 (ip), vehicle: saline with Tween-80): 0 of 6
survivor count (dose: 400.0 mg/kg/injection, schedule: Q04DX002 (ip), vehicle: saline with Tween-80): 0 of 6

CS(=O)(=O)Nc1ccc(NC(=O)c2c3ccccc3nc3ccccc23)cc1
survivor count [2]: 1 of 6
survivor count [3]: 0 of 6

CCCOc1ccc2c(NCCCCNc3c4ccccc4nc4cc(OCCC)ccc34)c3ccccc3nc2c1
survivor count (dose: 20.0 mg/kg/injection, schedule: Q01DX009 (ip), vehicle: other): 2 of 6

CCC1CCCCN1Cc1ccccc1 (configuration not stated)
survivor count [1]: 3 of 6

CN1COC(OC2OCN(C)CC2(C)C)C(C)(C)C1 (configuration not stated)
T/C (dose: 50.0 mg/kg/injection, schedule: Q01DX009 (ip), vehicle: saline with Tween-80): 139 % of control
T/C (dose: 200.0 mg/kg/injection, schedule: Q01DX009 (ip), vehicle: saline with Tween-80): 148 % of control

O=[N+]([O-])c1cc(I)c(O)c(/C=N/NS(=O)(=O)c2ccc(Cl)cc2)c1
survivor count [3]: 0 of 6

O=NNc1ccc(S(=O)(=O)c2ccc(NN=O)cc2)cc1
survivor count (dose: 150.0 mg/kg/injection, schedule: Q01DX009 (ip), vehicle: water): 3 of 6

COc1ccc(NC(=O)Nc2ccc(-c3ccc(NC(=O)Nc4ccc(OC)cc4)c(C)c3)cc2C)cc1
survivor count [2]: 5 of 5

Nc1nc2ccccc2n1C(=O)C(F)(F)F
survivor count (dose: 400.0 mg/kg/injection, schedule: Q01DX001 (ip), vehicle: Klucel (hydroxypropylcellulose) (HPC)): 2 of 6

CNCc1c(C)[nH]c2ccc(N(C)C)cc2c1=O
survivor count (dose: 240.0 mg/kg/injection, schedule: Q01DX005 (ip), vehicle: saline with Tween-80): 0 of 6

CC[n+]1c(C)sc2ccccc21
survivor count (dose: 100.0 mg/kg/injection, schedule: Q01DX005 (ip), vehicle: saline): 0 of 5

CO[C@@]12[C@@H]3N[C@@H]3CN1C1=C(C(=O)C(NCC3CCCO3)=C(C)C1=O)[C@@H]2COC(N)=O (some centres not stated)
T/C (dose: 3.12 mg/kg/injection, schedule: Q01DX005 (ip), vehicle: distilled water + Tween-80): 146 % of control
T/C (dose: 3.13 mg/kg/injection, schedule: Q01DX001 (ip), vehicle: distilled water + Tween-80): 145 % of control
T/C (dose: 6.25 mg/kg/injection, schedule: Q01DX001 (ip), vehicle: distilled water + Tween-80): 142 % of control

CCOC(=O)CN1C(=O)S/C(=C2\C(=O)N(C)c3ccc(Br)cc32)C1=O
survivor count (dose: 100.0 mg/kg/injection, schedule: Q04DX002 (ip), vehicle: Klucel (hydroxypropylcellulose) (HPC)): 6 of 6
survivor count (dose: 200.0 mg/kg/injection, schedule: Q04DX002 (ip), vehicle: Klucel (hydroxypropylcellulose) (HPC)): 6 of 6
survivor count (dose: 400.0 mg/kg/injection, schedule: Q04DX002 (ip), vehicle: Klucel (hydroxypropylcellulose) (HPC)): 6 of 6

O=C1NC(=O)C2=C1CCC2Br (configuration not stated)
survivor count (dose: 12.5 mg/kg/injection, schedule: Q01DX009 (ip), vehicle: distilled water + Tween-80): 3 of 6
survivor count (dose: 25.0 mg/kg/injection, schedule: Q01DX009 (ip), vehicle: distilled water + Tween-80): 0 of 6
survivor count (dose: 50.0 mg/kg/injection, schedule: Q01DX009 (ip), vehicle: distilled water + Tween-80): 0 of 6
survivor count (dose: 100.0 mg/kg/injection, schedule: Q01DX009 (ip), vehicle: distilled water + Tween-80): 0 of 6

CC1CCCCC12C(C#N)(C#N)C2(C#N)C#N (configuration not stated)
survivor count (dose: 50.0 mg/kg/injection, schedule: Q04DX003 (ip), vehicle: Klucel (hydroxypropylcellulose) (HPC)): 3 of 6 and 6 of 6
survivor count (dose: 100.0 mg/kg/injection, schedule: Q04DX003 (ip), vehicle: Klucel (hydroxypropylcellulose) (HPC)): 2 of 6
survivor count (dose: 200.0 mg/kg/injection, schedule: Q04DX003 (ip), vehicle: Klucel (hydroxypropylcellulose) (HPC)): 0 of 6
survivor count (dose: 400.0 mg/kg/injection, schedule: Q04DX003 (ip), vehicle: Klucel (hydroxypropylcellulose) (HPC)): 0 of 6
